Source: PMC9570175
No constants are given. Whether binding was seen depends on the method and setting. Some entries that bind do so weakly or less than the wild type.

Target: T1, OsDCL1-RBD (two C-terminal dsRBDs of DICER-LIKE1, AA1706-1870) (rice (Oryza sativa)) (UniProt Q8LMR2)
T1 sequence: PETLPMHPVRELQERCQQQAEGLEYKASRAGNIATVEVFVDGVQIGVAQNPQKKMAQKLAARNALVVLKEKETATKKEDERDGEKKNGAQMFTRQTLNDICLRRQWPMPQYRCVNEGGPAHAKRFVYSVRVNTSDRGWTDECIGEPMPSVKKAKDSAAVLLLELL
Assay: two-hybrid; Matchmaker GAL4 two-hybrid system 3 (Clontech), Y2HGold yeast; OsDRB2 on GAL4 AD (pGADT7), DCL1-RBD or OsDRB1-2 on GAL4 BD (pGBKT7); growth on selective -Ade/-His/-Leu/-Trp plates, 28 °C

binding: binds
B1: OsDRB2 (DOUBLE-STRANDED RNA-BINDING2) (protein, UniProt Q9AV50 1-514)
chain: MYKNQLQELAQRSCFNLPAYTCLREGPDHAPRFKAAVNFNGEQFESPGFFTTLRQAEHAAAEVALAALARRGPSYSLAARILDETGVYKNLLQEVAQRVGAPLPSYTTERSGLGHLPVFTCTVELAGITFTGDPAKNKKQAEKNAASAAWSSLRQLVRQEASSSNEPESNDEQEQIRIARALLNYRLKEKMAMANNPHASPFPKKFPMQPERRTAFPQSSHSSYSKILPLFRPKSNSRSRPESPAASDAASQTPFRPTESPNPRSRFPAAEAAPYVPVGHFRMPCHSMAPPVTVRTSIPVFSAPPLPPPGARTQQLPPLMSHPPPIRMASPVRIRPAPPLFTPSAVQGPKPMMPVQIKDVQHQQIKETRSPVMPVQVKDAQNQLLKGSLSPVIPVQIKDVQSQPPKEALSPAIPVQIKDVQLQPRNEPVSIGKGVVPLPAIRPPVKVEAPAEVKEASQPVAGSSVVQCKADTSPDSLPKTQLKTANADNADAKDDHLPVDAEEVEDIIRHLELK
